For test [1], the target named is Hypoxia-inducible factor-1α (human (endogenous in HUH7)) (UniProt Q16665). Description: co-IP; Pierce Crosslink Magnetic IP/Co-IP Kit; 5 μg CDK5 antibody or HIF-1α antibody, mouse IgG1 as control antibody; HUH7 cells treated with 100 μM deferoxamine for six hours; both directions; n = 3.
Test [2] deals with Cyclin-dependent kinase 5 (human (endogenous in HUH7)) (UniProt Q00535). The description is as above.

No constants are given. Whether binding was seen depends on the method and setting. In cells and extracts the contact can be indirect. Some binding calls cover weakened binding; strength is not graded here.

For the substance “Cyclin-dependent kinase 5 (from UniProt Q00535 1-292) (enzyme)”, the binding entry in test [1] is reported as “binds”.
As to “Hypoxia-inducible factor-1α (from UniProt Q16665 1-826)”, the binding result in test [2] is reported as “binds”.

For the origin of these results see article PMC5053636.
